This note sets out measurements from doi:10.1101/2024.09.19.613899.

Amino acid sequences for entries named in this document (tags omitted).
UniProt Q08211: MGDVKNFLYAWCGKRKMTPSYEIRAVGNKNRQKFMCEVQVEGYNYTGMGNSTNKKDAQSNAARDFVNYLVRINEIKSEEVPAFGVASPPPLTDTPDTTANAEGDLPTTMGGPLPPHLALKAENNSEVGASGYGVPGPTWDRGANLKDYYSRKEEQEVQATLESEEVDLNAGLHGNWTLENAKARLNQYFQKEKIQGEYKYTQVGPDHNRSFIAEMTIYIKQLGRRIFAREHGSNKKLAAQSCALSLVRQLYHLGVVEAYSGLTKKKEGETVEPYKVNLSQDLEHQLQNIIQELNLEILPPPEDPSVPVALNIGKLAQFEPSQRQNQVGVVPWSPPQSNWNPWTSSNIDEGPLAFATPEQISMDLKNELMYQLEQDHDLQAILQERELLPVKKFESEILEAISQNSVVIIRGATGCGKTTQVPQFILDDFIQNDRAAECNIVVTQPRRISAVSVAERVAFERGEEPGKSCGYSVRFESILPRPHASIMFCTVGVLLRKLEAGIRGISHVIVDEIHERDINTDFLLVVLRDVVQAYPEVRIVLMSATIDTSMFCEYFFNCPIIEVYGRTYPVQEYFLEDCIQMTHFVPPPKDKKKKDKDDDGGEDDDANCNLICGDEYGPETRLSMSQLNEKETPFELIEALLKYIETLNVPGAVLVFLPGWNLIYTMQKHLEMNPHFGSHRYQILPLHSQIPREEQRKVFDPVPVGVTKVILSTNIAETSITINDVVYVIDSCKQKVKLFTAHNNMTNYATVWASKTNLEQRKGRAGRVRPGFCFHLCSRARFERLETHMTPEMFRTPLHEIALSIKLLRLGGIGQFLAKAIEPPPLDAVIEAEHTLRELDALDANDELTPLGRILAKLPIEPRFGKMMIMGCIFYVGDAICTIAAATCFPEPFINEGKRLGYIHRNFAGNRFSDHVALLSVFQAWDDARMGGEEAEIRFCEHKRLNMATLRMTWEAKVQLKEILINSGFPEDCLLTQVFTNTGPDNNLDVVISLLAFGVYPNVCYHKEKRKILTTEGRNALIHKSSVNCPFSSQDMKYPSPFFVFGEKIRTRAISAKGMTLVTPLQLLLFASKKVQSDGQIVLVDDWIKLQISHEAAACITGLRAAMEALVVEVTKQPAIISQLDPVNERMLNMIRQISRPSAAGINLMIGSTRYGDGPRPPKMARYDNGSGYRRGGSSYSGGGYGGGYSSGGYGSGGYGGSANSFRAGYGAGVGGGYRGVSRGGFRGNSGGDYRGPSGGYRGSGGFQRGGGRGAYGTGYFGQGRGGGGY
UniProt F1N4J1: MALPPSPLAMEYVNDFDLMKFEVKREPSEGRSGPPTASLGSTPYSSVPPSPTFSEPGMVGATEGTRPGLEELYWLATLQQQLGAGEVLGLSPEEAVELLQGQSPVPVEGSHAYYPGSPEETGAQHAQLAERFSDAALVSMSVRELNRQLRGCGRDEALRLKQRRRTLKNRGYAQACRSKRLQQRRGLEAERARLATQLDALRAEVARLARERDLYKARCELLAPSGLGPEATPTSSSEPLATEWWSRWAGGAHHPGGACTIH
UniProt Q28141: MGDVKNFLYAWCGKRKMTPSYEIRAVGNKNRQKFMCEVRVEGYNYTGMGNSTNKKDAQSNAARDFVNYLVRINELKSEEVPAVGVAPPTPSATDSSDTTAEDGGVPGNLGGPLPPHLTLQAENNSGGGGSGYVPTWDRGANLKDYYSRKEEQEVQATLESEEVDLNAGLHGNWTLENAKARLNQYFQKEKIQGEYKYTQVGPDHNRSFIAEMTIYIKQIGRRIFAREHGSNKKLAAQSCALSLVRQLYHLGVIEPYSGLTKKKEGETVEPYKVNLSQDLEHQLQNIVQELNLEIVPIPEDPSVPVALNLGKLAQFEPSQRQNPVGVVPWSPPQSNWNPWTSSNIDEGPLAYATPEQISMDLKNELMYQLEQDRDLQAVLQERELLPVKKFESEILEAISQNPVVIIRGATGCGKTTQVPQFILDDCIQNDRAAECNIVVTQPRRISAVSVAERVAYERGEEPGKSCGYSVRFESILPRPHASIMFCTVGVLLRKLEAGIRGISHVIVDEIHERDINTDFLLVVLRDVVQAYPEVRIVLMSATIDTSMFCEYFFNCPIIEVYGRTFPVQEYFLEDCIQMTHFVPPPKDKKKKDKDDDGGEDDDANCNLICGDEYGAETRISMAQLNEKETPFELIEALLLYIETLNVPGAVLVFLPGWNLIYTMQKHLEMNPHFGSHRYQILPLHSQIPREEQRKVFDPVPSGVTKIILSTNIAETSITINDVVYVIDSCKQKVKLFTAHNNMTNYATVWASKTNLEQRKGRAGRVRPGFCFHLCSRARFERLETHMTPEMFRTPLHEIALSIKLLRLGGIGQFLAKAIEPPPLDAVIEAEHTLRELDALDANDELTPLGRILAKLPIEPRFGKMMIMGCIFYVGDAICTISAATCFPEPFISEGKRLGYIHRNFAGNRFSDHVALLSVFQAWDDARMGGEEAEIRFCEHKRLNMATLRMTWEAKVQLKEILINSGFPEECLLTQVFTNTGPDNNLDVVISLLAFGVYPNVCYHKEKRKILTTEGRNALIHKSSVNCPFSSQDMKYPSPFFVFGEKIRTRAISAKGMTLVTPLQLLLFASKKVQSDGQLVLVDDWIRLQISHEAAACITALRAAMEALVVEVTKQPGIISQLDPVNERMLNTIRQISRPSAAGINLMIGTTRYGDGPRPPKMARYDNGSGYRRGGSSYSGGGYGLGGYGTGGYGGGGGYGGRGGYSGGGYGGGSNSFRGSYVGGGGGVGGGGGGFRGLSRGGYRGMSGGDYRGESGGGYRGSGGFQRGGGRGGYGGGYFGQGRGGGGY
UniProt P54846: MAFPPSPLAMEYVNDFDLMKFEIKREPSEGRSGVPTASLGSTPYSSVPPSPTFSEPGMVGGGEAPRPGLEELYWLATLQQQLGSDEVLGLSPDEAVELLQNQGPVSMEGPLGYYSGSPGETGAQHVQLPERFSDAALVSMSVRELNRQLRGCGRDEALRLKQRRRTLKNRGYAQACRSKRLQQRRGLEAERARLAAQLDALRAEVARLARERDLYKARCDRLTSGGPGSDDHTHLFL
UniProt P54845: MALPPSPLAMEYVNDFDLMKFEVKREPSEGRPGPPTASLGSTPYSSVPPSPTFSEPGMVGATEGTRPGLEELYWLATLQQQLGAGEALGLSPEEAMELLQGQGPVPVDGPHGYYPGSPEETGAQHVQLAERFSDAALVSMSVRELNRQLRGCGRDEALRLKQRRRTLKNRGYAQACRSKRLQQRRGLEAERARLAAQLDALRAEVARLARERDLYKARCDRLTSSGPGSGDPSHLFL
UniProt P17844: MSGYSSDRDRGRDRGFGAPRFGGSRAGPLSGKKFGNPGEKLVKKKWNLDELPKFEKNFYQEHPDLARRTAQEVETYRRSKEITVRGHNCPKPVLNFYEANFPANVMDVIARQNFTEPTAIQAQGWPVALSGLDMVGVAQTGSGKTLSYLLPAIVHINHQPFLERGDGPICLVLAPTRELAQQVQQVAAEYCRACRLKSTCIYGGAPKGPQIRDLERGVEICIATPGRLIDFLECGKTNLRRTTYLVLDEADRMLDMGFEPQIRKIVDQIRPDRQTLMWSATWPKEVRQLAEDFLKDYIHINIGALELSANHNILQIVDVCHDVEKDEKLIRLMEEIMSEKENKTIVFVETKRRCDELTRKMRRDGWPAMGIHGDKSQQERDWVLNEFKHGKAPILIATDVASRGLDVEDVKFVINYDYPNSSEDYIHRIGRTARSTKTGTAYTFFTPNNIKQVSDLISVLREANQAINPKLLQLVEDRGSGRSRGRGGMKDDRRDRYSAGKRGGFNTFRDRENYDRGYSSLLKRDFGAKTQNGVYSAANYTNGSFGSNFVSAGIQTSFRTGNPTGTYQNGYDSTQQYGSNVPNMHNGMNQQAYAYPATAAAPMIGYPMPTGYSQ
UniProt A0A3Q1M155: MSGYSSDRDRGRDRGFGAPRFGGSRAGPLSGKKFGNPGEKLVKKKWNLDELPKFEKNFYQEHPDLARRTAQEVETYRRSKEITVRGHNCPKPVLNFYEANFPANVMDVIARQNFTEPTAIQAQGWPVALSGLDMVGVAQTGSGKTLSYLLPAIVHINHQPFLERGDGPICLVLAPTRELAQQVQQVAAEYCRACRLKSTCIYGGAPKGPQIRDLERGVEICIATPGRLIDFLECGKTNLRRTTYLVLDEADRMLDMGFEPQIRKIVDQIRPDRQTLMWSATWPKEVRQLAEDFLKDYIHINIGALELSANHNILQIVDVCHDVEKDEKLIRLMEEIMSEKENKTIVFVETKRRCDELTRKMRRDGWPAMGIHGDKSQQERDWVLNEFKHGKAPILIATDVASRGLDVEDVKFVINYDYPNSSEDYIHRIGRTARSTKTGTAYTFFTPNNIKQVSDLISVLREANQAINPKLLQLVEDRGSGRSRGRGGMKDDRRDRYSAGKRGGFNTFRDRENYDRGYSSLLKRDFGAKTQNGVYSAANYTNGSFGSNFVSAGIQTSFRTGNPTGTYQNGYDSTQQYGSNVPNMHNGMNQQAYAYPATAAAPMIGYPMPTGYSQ
UniProt O70133: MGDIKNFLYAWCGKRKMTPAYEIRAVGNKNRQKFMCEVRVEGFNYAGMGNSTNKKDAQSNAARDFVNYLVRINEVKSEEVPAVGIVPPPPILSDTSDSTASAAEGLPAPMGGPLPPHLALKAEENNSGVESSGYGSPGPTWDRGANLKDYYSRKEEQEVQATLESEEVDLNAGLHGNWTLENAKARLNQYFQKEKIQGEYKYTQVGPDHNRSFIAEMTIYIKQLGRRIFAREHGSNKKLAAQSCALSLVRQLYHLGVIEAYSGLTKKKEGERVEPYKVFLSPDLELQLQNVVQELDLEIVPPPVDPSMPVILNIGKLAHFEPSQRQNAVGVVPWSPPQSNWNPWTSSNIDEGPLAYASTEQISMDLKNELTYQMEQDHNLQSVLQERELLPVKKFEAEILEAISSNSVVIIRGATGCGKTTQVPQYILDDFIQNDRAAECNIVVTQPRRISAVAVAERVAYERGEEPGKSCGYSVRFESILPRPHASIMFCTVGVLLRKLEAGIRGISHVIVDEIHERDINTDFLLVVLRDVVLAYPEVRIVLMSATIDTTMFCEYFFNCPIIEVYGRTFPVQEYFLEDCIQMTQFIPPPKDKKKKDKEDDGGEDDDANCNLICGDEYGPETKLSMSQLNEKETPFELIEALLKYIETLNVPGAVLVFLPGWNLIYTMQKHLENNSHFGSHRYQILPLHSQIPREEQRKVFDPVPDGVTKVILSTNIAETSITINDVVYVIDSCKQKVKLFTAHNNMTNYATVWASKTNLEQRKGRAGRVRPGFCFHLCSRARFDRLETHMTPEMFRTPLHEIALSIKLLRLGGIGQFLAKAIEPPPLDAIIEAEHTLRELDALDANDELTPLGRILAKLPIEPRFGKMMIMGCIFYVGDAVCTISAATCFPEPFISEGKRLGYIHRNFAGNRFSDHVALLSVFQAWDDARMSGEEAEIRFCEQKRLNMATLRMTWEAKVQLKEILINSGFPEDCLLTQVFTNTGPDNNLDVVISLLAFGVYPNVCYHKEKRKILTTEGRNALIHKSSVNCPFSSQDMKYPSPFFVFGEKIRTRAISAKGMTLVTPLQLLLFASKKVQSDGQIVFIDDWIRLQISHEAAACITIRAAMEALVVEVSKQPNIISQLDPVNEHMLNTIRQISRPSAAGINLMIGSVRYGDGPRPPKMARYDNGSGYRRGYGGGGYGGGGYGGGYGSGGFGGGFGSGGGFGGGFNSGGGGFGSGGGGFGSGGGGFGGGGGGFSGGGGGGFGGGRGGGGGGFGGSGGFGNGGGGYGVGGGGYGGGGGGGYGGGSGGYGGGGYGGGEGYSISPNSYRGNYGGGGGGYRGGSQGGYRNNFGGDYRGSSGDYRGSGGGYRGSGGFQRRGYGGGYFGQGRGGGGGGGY
UniProt P09867: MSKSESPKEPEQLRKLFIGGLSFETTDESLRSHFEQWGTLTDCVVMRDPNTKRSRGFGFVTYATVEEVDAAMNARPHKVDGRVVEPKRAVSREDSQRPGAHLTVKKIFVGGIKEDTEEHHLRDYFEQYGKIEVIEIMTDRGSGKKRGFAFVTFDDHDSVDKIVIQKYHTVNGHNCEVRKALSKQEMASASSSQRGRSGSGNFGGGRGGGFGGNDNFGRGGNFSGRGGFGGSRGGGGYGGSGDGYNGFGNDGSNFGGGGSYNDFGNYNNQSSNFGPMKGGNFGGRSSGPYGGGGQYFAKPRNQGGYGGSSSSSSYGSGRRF
UniProt Q2HJ60: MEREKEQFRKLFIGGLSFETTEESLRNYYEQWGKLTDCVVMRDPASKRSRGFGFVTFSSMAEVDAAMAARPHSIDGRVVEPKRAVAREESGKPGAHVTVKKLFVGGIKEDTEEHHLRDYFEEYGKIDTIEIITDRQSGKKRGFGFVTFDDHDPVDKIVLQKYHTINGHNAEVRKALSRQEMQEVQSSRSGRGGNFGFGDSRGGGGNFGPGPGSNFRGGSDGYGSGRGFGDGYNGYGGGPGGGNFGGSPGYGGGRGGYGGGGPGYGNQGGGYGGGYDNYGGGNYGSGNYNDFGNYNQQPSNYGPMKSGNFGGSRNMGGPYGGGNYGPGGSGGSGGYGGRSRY

Results are given in words; binding and its absence hold for the method and conditions named. Binding seen in cells or lysates may run through a third protein. Some entries that bind do so weakly or less than the wild type.

The target in test [1] is DHX9 (HEK293 cells) (human (endogenous in HEK293)) (UniProt Q08211). The experiment in a line: co-IP; HEK293 cells overexpressing NRL, lysed in 40 mM Tris-HCl pH 8.0, 150 mM NaCl, 2 mM EDTA, 0.2% NP-40; lysates treated 30 min at 37°C with RNaseOUT (control), RNase A, RNase H or DNase I; IP with NRL, DHX9 or DDX5 antibody on Dynabeads Protein A overnight at 4°C; immunoblot.

The target of test [2] is NRL (bovine retina) (bovine (endogenous in bovine retina)) (UniProt F1N4J1). The experiment in a line: co-IP; nuclear fraction of bovine retina in co-IP binding buffer, sonicated; lysates treated 30 min at 37°C with RNaseOUT (control), RNase A or RNase H; IP with NRL, DHX9 or DDX5 antibody on Dynabeads Protein A overnight at 4°C; immunoblot.
For test [3], the target named is DHX9 RNA helicase (bovine retina) (bovine (endogenous in bovine retina)) (UniProt Q28141). The description is as above.
Test [4] has as its target NRL (mouse retina) (mouse (endogenous in mouse retina)) (UniProt P54846). The experiment in a line: proximity ligation; Duolink PLA on adult mouse retina sections with anti-NRL and anti-DHX9 or anti-DDX5 antibodies; Nrl KO retina as control.
Test [5] has as its target human NRL fused to GST (human) (UniProt P54845). The experiment in a line: pull-down; GST-NRL on Glutathione Sepharose beads incubated 2 hr at 4°C with nuclear fraction from bovine retina, with or without 25 U of benzonase; washes in PBS with 1% Triton X-100; immunoblot; purified GST as control; only the target purified.

Regarding “DDX5 (HEK293 cells) (from UniProt P17844 1-614)”, in test [1], the binding result is reported as “binds”.

In the case of “DDX5 (bovine retina) (from UniProt A0A3Q1M155 1-614)”, the binding result in test [2] and in test [3] was “binds” in each case. For the substance “DHX9 (mouse retina) (from UniProt O70133 1-1380)”, the binding entry in test [4] is “binds”. As to “DHX9 RNA helicase (bovine retina) (from UniProt Q28141 1-1287)”, the binding result in test [2] and in test [5] was “binds” throughout. In the case of “HNRNPA1 (bovine retina) (from UniProt P09867 1-320)”, the binding result in test [5] is recorded as “binds”. As for “HNRNPA2B1 (bovine retina) (from UniProt Q2HJ60 1-341)”, the binding result in test [5] is recorded as “binds”. Take “NRL (bovine retina) (from UniProt F1N4J1 1-262)”: the binding result in test [3] is reported as “binds”. Take “Xpress-tagged human NRL (from UniProt P54845 1-237)”: the binding entry in test [1] is on record as “binds”.
